Laboratory results: PubChem BioAssay AID1259331 (Drosophila RNAi Screening Center, 2017)
Shown is a random part of about 3,100 deposited reagents. In the full data, 126 (4.1%) got an active call. 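Calls are per reagent; zinc was so toxic that few knock-downs lowered ATP further, so most hits raise ATP.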 The raw values are shown without normalisation. Not given: the amount of reagent.

- Screen: 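Fly transmembrane-protein genes that affect zinc toxicity in cultured cells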 (primary screen)
- Cell system: Drosophila S2R+ cells
- Knock-down reagent: long dsRNA against Drosophila genes
- Time to read-out: 5 days (4 days knock-down, then 1 day zinc)
- Conditions: zinc chloride at 15 mM final level for 1 day
- Detection: 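Total cellular ATP measured by luciferase luminescence as a viability proxy, turned into Z scores from three plate copies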
- Scale: mean Z score: higher = more ATP than other wells, better survival under zinc; ATP luminescence: higher = more ATP, more viable cells
- Active means: 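Hit when the absolute Z score is greater than 1.5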
- Meaning of the calls: active = hit, ATP up or down; inactive = not a hit

After knock-down of oys (oysgedart) [DRSC05203] the results were mean Z score 1.52; ATP luminescence, replicate 1 = 62741; ATP luminescence, replicate 2 = 62913; active.
oys (oysgedart) [DRSC06751] gave mean Z score -0.344; ATP luminescence, replicate 1 = 30525; ATP luminescence, replicate 2 = 30507; inactive.
After knock-down of oys (oysgedart) [DRSC26939] the results were mean Z score 0.243; ATP luminescence, replicate 1 = 60649; ATP luminescence, replicate 2 = 61146; inactive.
After knock-down of l(2)k05819 (lethal (2) k05819) [DRSC00826], the record shows mean Z score -0.334; ATP luminescence, replicate 1 = 48629; ATP luminescence, replicate 2 = 54562; inactive.
l(2)k05819 (lethal (2) k05819) [DRSC39612] showed mean Z score -0.854; ATP luminescence, replicate 1 = 42764; ATP luminescence, replicate 2 = 47806; inactive.
GluRIB (Glutamate receptor IB) [DRSC11177] scored mean Z score 2.14; ATP luminescence, replicate 1 = 1.15e5; ATP luminescence, replicate 2 = 96086; active.
For GluRIB (Glutamate receptor IB) [DRSC25464], the values are mean Z score -0.0516; ATP luminescence, replicate 1 = 57151; ATP luminescence, replicate 2 = 55667; inactive.
Depletion of CG30379 [DRSC05070] gave: mean Z score 0.506; ATP luminescence, replicate 1 = 38856; ATP luminescence, replicate 2 = 55745; inactive.
Silencing of CG30379 [DRSC39783] gave: mean Z score -0.143; ATP luminescence, replicate 1 = 51767; ATP luminescence, replicate 2 = 56774; inactive.
Silencing of Or94b (Odorant receptor 94b) [DRSC16773] came out at: mean Z score -0.131; ATP luminescence, replicate 1 = 37605; ATP luminescence, replicate 2 = 54990; inactive.
After knock-down of Or94b (Odorant receptor 94b) [DRSC27188] the results were mean Z score 0.196; ATP luminescence, replicate 1 = 65914; ATP luminescence, replicate 2 = 57322; inactive.
With knock-down of Lcch3 (Ligand-gated chloride channel homolog 3) [DRSC22175] the results were mean Z score -0.0556; ATP luminescence, replicate 1 = 44305; ATP luminescence, replicate 2 = 47360; inactive.
Against CG32547 [DRSC19263], the entry reads mean Z score 0.755; ATP luminescence, replicate 1 = 91951; ATP luminescence, replicate 2 = 88726; inactive.
For CG32547 [DRSC19474], the entry reads mean Z score -0.0467; ATP luminescence, replicate 1 = 31107; ATP luminescence, replicate 2 = 31056; inactive.
Depletion of SPoCk (Secretory Pathway Calcium atpase) [DRSC11844] resulted in: mean Z score -0.282; ATP luminescence, replicate 1 = 71067; ATP luminescence, replicate 2 = 53841; inactive.
With knock-down of SPoCk (Secretory Pathway Calcium atpase) [DRSC24007] the results were mean Z score 0.523; ATP luminescence, replicate 1 = 69824; ATP luminescence, replicate 2 = 69087; inactive.

Ordered by “mean Z score” (lowest first): some entries from above
l(2)k05819 (lethal (2) k05819) [DRSC00826] | mean Z score = -0.334; ATP luminescence, replicate 1 = 48629; ATP luminescence, replicate 2 = 54562; Outcome = inactive
oys (oysgedart) [DRSC26939] | mean Z score = 0.243; ATP luminescence, replicate 1 = 60649; ATP luminescence, replicate 2 = 61146; Outcome = inactive
